{"sequences": {"note": "Protein sequences, listed by entry. Tags and fused reporters are not part of them.", "UniProt Q01638, whole entry": "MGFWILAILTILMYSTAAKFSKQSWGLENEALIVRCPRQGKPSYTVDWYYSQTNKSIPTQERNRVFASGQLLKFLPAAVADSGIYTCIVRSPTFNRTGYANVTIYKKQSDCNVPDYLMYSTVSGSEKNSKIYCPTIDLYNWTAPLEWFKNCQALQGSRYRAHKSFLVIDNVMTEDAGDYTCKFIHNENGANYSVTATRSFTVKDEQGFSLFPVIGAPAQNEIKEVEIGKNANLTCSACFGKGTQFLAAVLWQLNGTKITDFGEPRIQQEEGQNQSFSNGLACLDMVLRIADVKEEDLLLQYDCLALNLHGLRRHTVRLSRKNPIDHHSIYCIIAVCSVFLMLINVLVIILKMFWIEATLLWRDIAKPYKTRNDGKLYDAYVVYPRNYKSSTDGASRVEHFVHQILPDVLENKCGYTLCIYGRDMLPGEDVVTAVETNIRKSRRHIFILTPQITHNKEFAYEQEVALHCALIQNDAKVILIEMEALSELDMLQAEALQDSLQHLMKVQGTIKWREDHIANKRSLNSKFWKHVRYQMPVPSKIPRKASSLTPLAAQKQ", "UniProt O95760, whole entry partner": "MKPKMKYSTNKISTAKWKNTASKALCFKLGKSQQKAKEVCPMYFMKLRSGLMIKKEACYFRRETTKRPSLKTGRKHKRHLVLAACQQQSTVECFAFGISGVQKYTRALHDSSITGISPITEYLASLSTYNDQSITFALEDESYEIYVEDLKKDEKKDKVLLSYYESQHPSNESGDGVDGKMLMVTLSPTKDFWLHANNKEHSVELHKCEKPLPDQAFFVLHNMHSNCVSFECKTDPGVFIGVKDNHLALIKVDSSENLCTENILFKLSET"}, "source": "PubChem BioAssay AID1259354", "note": "About 1,800 (2.3%) of roughly 78,000 compounds were called active. All entries are inconclusive by the source's own rule. Clear calls are listed elsewhere. Rule as the data show it: active = inhibition above about 30%; inconclusive = mostly about 10% to 28%; inactive = weaker than that.", "data": [{"target": "Interleukin-1 receptor-like 1 (Homo sapiens) (UniProt Q01638)", "experiment": "blocks human ST2 binding to IL-33, primary screen, biochemical, AlphaLISA (AID 1259354)", "details": "AlphaLISA ST2-Fc/biotin-IL-33 interaction, 1 h; at 17 µM; hits give high values", "values": [{"smiles": "CCN1CCC(Nc2ccc(F)cc2)CC1", "inhibition": "inconclusive: 23%"}]}]}
